The list shows only some results of the screen, not a fair sample: it gathers tests that were run many times, whatever their T/C, doses with no T/C, and many T/C values between a quarter and a half above the control. Further doses and runs are listed elsewhere. T/C: endpoint of the treated group in % of that of the vehicle group. Some doses have a count of surviving animals in place of a T/C: the source holds a T/C of zero for them, seemingly a mark for toxic or unscored doses. Some survivor counts are full or nearly so, which does not show that the dose was tolerated: survival well below the control is almost never listed, so the zero probably covers shortened survival too. Counts of survivors are from the toxicity check (mostly the fifth day) where no day follows; animals may have died later. Schedule codes are those of the source, taken here to give the interval after Q, in days (D) or hours (H), and the number of doses after X. Some molecules as drawn cover several salts, stereoisomers or complexes of the source; a dose is that of the sample tested. Additions like (4×) count equal records among those shown. Some entries hold several experiments; their values stand side by side, smallest first. For survival time, this PubChem deposit counts one and a half times the control or more as active, and values a quarter to a half above the control carry no call in these data; other NCI protocols may use other cut-offs.
Tested on: L1210 leukemia ip in BDF1 mice, survival T/C
Assay: NCI In Vivo Anticancer Drug Screen. Data for tumor model L1210 Leukemia (intraperitoneal) in B6D2F1 (BDF1) mice
Conditions: T/C endpoint: mean survival time, higher T/C = longer survival
[1] = dose: 400.0 mg/kg/injection, schedule: Q01DX009 (ip), vehicle: Klucel (hydroxypropylcellulose) (HPC)
[2] = dose: 400.0 mg/kg/injection, schedule: Q01DX001 (ip), vehicle: carboxymethylcellulose (CMC)
[3] = dose: 400.0 mg/kg/injection, schedule: Q04DX003 (ip), vehicle: Klucel (hydroxypropylcellulose) (HPC)
[4] = dose: 100.0 mg/kg/injection, schedule: Q04DX003 (ip), vehicle: Klucel (hydroxypropylcellulose) (HPC)
[5] = dose: 200.0 mg/kg/injection, schedule: Q04DX003 (ip), vehicle: Klucel (hydroxypropylcellulose) (HPC)

Structure (SMILES): C(=C/c1ccnc(/C=C/c2ccccc2)c1)/c1ccccc1
- survivor count (dose: 50.0 mg/kg/injection, schedule: Q01DX009 (ip), vehicle: acetone): 6 of 6
- survivor count (dose: 400.0 mg/kg/injection, schedule: Q04DX003 (ip), vehicle: acetone): 6 of 6

Structure (SMILES): CCCCCN(C)N=Nc1ccccc1C(N)=O
- survivor count [1]: 0 of 6

Structure (SMILES): COc1cc2c(cc1OC)/C(=C(\C#N)CCC(C)=O)NCC2
- survivor count [2]: 0 of 4

Structure (SMILES): C=CCOc1c(Br)cc(Br)cc1Br
- survivor count (dose: 50.0 mg/kg/injection, schedule: Q04DX002 (ip), vehicle: Klucel (hydroxypropylcellulose) (HPC)): 3 of 3
- survivor count (dose: 100.0 mg/kg/injection, schedule: Q04DX002 (ip), vehicle: Klucel (hydroxypropylcellulose) (HPC)): 3 of 3
- survivor count (dose: 200.0 mg/kg/injection, schedule: Q04DX002 (ip), vehicle: Klucel (hydroxypropylcellulose) (HPC)): 3 of 3

Structure (SMILES): Br/C=C\c1ccccc1
- survivor count (dose: 200.0 mg/kg/injection, schedule: Q01DX009 (ip), vehicle: saline): 6 of 6
- survivor count (dose: 400.0 mg/kg/injection, schedule: Q01DX009 (ip), vehicle: acetone): 0 of 6
- survivor count (dose: 400.0 mg/kg/injection, schedule: Q01DX009 (ip), vehicle: saline): 0 of 6

Structure (SMILES): CC1=C2[C@H]3OC(=O)[C@@H](C)[C@@H]3CC[C@@]2(C)C=CC1=O
- survivor count (dose: 400.0 mg/kg/injection, schedule: Q01DX001 (ip), vehicle: saline): 1 of 6
- survivor count [3]: 0 of 6

Structure (SMILES): CCCCCCCCCCCCCCCCCC[n+]1ccc(C(=O)c2ccccc2)cc1
- survivor count (dose: 75.0 mg/kg/injection, schedule: Q01DX001 (ip), vehicle: other): 5 of 6
- survivor count (dose: 150.0 mg/kg/injection, schedule: Q01DX001 (ip), vehicle: other): 1 of 6
- survivor count (dose: 300.0 mg/kg/injection, schedule: Q01DX001 (ip), vehicle: other): 0 of 6

Structure (SMILES): CCCCCCCCCCCCNC(=O)c1cc[n+](C)cc1
- survivor count (dose: 100.0 mg/kg/injection, schedule: Q04DX003 (ip), vehicle: saline): 0 of 6 and 2 of 6
- survivor count (dose: 200.0 mg/kg/injection, schedule: Q04DX003 (ip), vehicle: saline): 0 of 6 and 1 of 6
- survivor count (dose: 400.0 mg/kg/injection, schedule: Q04DX003 (ip), vehicle: saline): 0 of 6 (2×)

Structure (SMILES): O=C(Nc1ccccc1)c1ccc2c(c1)C(=O)N(c1ccccc1)C2=O
- survivor count (dose: 400.0 mg/kg/injection, schedule: Q04DX002 (ip), vehicle: saline): 3 of 3

Structure (SMILES): ClC1=C(Cl)C2(Cl)C(COc3ccc(Cl)cc3)CC1(Cl)C2(Cl)Cl (configuration not stated)
- survivor count (dose: 100.0 mg/kg/injection, schedule: Q01DX009 (ip), vehicle: other): 3 of 6
- survivor count (dose: 200.0 mg/kg/injection, schedule: Q01DX009 (ip), vehicle: other): 2 of 6
- survivor count (dose: 400.0 mg/kg/injection, schedule: Q04DX003 (ip), vehicle: other): 1 of 6

Structure (SMILES): C1CSCSC1
- survivor count (dose: 50.0 mg/kg/injection, schedule: Q01DX009 (ip), vehicle: Klucel (hydroxypropylcellulose) (HPC)): 0 of 6
- survivor count [4]: 0 of 6
- survivor count [5]: 0 of 6
- survivor count [3]: 0 of 6

Structure (SMILES): O=C([O-])c1ccccc1[S+](c1ccccc1)c1ccccc1
- T/C (dose: 37.0 mg/kg/injection, schedule: Q04DX002 (ip), vehicle: saline with Tween-80): 129 % of control
- survivor count (dose: 75.0 mg/kg/injection, schedule: Q04DX002 (ip), vehicle: saline with Tween-80): 2 of 3
- survivor count (dose: 150.0 mg/kg/injection, schedule: Q04DX002 (ip), vehicle: saline with Tween-80): 0 of 3
- survivor count (dose: 300.0 mg/kg/injection, schedule: Q04DX002 (ip), vehicle: saline with Tween-80): 0 of 3

Structure (SMILES): C[N+]1(C)C2CC(O)CC1C1OC12 (configuration not stated)
- survivor count (dose: 10.0 mg/kg/injection, schedule: Q01DX001 (ip), vehicle: saline): 0 of 6
- survivor count (dose: 20.0 mg/kg/injection, schedule: Q01DX001 (ip), vehicle: saline): 0 of 6
- survivor count (dose: 40.0 mg/kg/injection, schedule: Q01DX001 (ip), vehicle: saline): 0 of 6
- survivor count (dose: 75.0 mg/kg/injection, schedule: Q01DX001 (ip), vehicle: saline): 0 of 6
- survivor count (dose: 150.0 mg/kg/injection, schedule: Q01DX001 (ip), vehicle: saline): 0 of 6
- survivor count (dose: 300.0 mg/kg/injection, schedule: Q01DX001 (ip), vehicle: saline): 0 of 6

Structure (SMILES): CCN1CCC(c2ccccc2)(c2ccccc2)C1=N
- survivor count (dose: 150.0 mg/kg/injection, schedule: Q01DX001 (ip), vehicle: carboxymethylcellulose (CMC)): 0 of 6
- survivor count (dose: 300.0 mg/kg/injection, schedule: Q01DX001 (ip), vehicle: carboxymethylcellulose (CMC)): 0 of 6

Structure (SMILES): S=C(S)N1CCOCC1.[Cu+2]
- survivor count (dose: 200.0 mg/kg/injection, schedule: Q01DX001 (ip), vehicle: carboxymethylcellulose (CMC)): 0 of 4
- survivor count [2]: 0 of 4

Structure (SMILES): CNCCC(=O)c1ccccc1
- survivor count [3]: 0 of 6

Structure (SMILES): CCCCN(C)N=Nc1cn(C2OC(CO)C(O)C2O)c(=O)n(C)c1=O (configuration not stated)
- T/C (dose: 200.0 mg/kg/injection, schedule: Q01DX005 (ip), vehicle: saline): 128 % of control

Structure (SMILES): COc1cc2c(c(OC)c1OC)-c1ccc(OC)c(=O)cc1[C@@H](NC(=O)CCl)CC2
- T/C (dose: 0.39 mg/kg/injection, schedule: Q01DX009 (ip), vehicle: saline): 141 % of control
- T/C (dose: 0.39 mg/kg/injection, schedule: Q04DX003 (ip), vehicle: saline): 127 % of control
- survivor count (dose: 0.5 mg/kg/injection, schedule: Q01DX009 (ip), vehicle: Klucel (hydroxypropylcellulose) (HPC)): 6 of 6
- T/C (dose: 0.65 mg/kg/injection, schedule: Q01DX009 (ip), vehicle: saline): 131 % of control
- T/C (dose: 0.65 mg/kg/injection, schedule: Q04DX003 (ip), vehicle: saline): 131 % of control
- survivor count (dose: 1.0 mg/kg/injection, schedule: Q01DX009 (ip), vehicle: Klucel (hydroxypropylcellulose) (HPC)): 6 of 6
- survivor count (dose: 1.08 mg/kg/injection, schedule: Q01DX009 (ip), vehicle: saline): 8 of 8
- T/C (dose: 1.08 mg/kg/injection, schedule: Q04DX003 (ip), vehicle: saline): 139 % of control
- survivor count (dose: 1.5 mg/kg/injection, schedule: Q01DX009 (ip), vehicle: Klucel (hydroxypropylcellulose) (HPC)): 2 of 6
- T/C (dose: 1.8 mg/kg/injection, schedule: Q04DX003 (ip), vehicle: saline): 140 % of control
- T/C (dose: 3.0 mg/kg/injection, schedule: Q01DX001 (ip), vehicle: saline): 133 % of control
- survivor count (dose: 3.0 mg/kg/injection, schedule: Q01DX009 (ip), vehicle: Klucel (hydroxypropylcellulose) (HPC)): 3 of 6
- survivor count (dose: 3.0 mg/kg/injection, schedule: Q04DX003 (ip), vehicle: saline): 7 of 8
- T/C (dose: 5.0 mg/kg/injection, schedule: Q01DX001 (ip), vehicle: saline): 130 % of control
- survivor count (dose: 6.0 mg/kg/injection, schedule: Q01DX009 (ip), vehicle: Klucel (hydroxypropylcellulose) (HPC)): 0 of 6
- T/C (dose: 9.0 mg/kg/injection, schedule: Q01DX001 (ip), vehicle: saline): 126 % of control
- survivor count (dose: 12.5 mg/kg/injection, schedule: Q04DX003 (ip), vehicle: Klucel (hydroxypropylcellulose) (HPC)): 1 of 6
- survivor count (dose: 25.0 mg/kg/injection, schedule: Q04DX003 (ip), vehicle: Klucel (hydroxypropylcellulose) (HPC)): 0 of 6
- survivor count (dose: 50.0 mg/kg/injection, schedule: Q04DX003 (ip), vehicle: Klucel (hydroxypropylcellulose) (HPC)): 0 of 6
- survivor count [4]: 0 of 6
- survivor count [5]: 0 of 6
- survivor count [3]: 0 of 6

Structure (SMILES): CCOC(=O)c1ccc(NC(=O)Nc2cc(Cl)ccc2C)cc1
- survivor count [1]: 2 of 6

Structure (SMILES): Cc1nc(-c2ccc3ccc4cccnc4c3n2)no1
- survivor count (dose: 100.0 mg/kg/injection, schedule: Q04DX003 (ip), vehicle: saline with Tween-80): 1 of 4

Structure (SMILES): O=C([O][Sb]([O]C(=O)C(F)(F)F)([c]1ccccc1)([c]1ccccc1)[c]1ccccc1)C(F)(F)F
- survivor count (dose: 400.0 mg/kg/injection, schedule: Q01DX001 (ip), vehicle: saline with Tween-80): 0 of 6

Reference: PubChem BioAssay AID248 (DTP/NCI, 2004)
